Amino acid sequences for entries named in this document (tags omitted).
UniProt P21333: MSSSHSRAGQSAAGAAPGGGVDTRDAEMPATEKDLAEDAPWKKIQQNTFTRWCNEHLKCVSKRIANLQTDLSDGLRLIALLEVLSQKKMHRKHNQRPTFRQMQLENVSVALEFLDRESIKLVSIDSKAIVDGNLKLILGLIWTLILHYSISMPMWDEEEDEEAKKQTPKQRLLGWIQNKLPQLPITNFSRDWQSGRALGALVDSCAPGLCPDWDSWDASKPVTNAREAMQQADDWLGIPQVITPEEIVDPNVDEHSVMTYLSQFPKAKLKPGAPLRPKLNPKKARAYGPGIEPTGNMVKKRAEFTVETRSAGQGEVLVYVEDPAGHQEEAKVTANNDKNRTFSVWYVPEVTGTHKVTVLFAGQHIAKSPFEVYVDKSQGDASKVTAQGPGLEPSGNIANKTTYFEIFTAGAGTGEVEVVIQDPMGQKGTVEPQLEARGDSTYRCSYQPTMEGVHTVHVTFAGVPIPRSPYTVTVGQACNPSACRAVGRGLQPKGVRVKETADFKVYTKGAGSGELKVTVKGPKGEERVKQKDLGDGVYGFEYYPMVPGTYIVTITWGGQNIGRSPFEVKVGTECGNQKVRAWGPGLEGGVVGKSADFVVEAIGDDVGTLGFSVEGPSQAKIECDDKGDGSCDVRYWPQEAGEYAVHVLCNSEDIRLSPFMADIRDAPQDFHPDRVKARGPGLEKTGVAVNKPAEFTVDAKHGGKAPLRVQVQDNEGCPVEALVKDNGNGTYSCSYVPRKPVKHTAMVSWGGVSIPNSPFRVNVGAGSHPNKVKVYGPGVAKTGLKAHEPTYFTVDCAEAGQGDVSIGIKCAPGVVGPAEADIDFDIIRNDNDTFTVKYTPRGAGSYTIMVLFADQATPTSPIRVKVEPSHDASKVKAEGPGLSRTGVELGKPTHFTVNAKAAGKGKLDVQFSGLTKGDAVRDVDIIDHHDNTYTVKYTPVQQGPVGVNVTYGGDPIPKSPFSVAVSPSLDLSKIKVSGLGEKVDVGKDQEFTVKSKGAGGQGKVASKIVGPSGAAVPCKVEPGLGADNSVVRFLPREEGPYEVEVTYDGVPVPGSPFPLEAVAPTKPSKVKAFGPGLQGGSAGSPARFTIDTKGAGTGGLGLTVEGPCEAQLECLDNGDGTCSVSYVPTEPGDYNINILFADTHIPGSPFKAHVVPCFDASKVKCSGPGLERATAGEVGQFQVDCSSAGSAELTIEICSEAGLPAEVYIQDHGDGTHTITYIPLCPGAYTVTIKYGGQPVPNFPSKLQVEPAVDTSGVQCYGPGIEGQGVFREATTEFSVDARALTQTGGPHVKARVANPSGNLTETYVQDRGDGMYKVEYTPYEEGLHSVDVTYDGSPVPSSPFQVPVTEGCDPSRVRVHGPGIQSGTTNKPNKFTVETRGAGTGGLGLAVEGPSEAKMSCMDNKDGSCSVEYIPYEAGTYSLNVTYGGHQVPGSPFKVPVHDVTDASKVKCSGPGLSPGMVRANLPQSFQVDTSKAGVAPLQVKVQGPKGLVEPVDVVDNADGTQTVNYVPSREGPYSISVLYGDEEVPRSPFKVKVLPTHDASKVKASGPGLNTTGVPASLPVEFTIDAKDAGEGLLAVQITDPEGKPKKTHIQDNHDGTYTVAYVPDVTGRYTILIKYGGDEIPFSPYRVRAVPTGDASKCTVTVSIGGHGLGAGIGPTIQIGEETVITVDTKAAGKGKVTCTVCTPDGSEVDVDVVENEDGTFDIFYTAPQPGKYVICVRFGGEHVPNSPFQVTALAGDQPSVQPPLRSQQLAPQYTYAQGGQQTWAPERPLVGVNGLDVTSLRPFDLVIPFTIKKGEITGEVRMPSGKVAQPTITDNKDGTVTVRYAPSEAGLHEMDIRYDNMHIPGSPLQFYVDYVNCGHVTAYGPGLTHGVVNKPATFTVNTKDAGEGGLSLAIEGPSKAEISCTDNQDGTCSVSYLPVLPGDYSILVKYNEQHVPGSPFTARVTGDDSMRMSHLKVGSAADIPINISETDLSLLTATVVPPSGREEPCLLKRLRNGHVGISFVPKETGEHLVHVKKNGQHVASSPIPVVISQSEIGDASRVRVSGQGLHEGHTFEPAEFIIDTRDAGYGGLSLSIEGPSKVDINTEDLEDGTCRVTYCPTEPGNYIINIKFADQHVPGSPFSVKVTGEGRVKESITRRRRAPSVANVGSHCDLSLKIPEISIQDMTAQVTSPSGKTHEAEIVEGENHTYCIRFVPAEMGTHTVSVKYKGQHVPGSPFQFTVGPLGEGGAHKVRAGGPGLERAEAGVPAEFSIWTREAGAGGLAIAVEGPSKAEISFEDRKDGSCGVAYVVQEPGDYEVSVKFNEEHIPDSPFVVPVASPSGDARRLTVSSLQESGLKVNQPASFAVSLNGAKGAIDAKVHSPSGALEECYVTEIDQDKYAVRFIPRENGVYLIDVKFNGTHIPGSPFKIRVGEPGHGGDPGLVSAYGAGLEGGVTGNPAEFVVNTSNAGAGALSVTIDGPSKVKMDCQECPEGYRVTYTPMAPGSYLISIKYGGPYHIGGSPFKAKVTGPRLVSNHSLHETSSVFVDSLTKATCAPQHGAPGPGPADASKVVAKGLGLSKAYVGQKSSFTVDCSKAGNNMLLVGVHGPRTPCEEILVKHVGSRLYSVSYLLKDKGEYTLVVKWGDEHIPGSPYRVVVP

In PMC8278077:

Target: T1, Latexin (LXN), endogenous in HUVECs (human (endogenous in HUVEC)) (UniProt Q9BS40)
T1 sequence: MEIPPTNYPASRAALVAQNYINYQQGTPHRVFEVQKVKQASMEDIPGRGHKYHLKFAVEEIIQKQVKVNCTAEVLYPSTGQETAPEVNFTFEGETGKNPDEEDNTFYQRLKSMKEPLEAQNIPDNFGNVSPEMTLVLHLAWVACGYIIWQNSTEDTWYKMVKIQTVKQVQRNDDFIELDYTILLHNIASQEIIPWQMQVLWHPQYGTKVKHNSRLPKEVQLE
Experiment: affinity purification with mass spectrometry; HUVEC lysate, immunoprecipitation with anti-LXN antibody, SDS-PAGE, bands excised, trypsin digestion, LC-MS/MS (LTQ)

Substance: Filamin A (FLNA), endogenous in HUVECs (from UniProt P21333 1-2647)
- binding: binds

Results are given in words; binding and its absence hold for the method and conditions named. In cells and extracts the contact can be indirect. These calls come from enrichment with a bait or labelling near it, and not all partners need be listed.
